Assay results as given in article PMC12000498.
No constants are given. Whether binding was seen depends on the method and setting. Binding seen in cells or lysates may run through a third protein. Some entries that bind do so weakly or less than the wild type.

Sequences of proteins named here, by UniProt entry; tags and fusion partners are left off.
UniProt Q9Z2G0: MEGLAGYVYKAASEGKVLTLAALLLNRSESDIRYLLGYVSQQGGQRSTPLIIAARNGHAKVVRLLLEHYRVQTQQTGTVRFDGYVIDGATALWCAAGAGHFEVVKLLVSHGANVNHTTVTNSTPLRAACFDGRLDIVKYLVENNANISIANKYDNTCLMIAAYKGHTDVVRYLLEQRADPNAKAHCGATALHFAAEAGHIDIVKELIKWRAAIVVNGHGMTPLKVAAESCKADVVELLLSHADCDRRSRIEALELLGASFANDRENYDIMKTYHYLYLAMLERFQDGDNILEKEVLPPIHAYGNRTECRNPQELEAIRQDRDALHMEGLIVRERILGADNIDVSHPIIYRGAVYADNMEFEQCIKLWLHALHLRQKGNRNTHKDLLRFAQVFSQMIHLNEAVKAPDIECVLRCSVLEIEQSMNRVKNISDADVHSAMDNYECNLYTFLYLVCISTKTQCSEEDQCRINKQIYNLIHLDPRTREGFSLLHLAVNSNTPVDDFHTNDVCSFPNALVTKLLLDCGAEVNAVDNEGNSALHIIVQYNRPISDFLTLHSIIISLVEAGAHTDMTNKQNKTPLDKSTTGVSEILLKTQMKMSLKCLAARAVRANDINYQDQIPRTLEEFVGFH
UniProt P47806: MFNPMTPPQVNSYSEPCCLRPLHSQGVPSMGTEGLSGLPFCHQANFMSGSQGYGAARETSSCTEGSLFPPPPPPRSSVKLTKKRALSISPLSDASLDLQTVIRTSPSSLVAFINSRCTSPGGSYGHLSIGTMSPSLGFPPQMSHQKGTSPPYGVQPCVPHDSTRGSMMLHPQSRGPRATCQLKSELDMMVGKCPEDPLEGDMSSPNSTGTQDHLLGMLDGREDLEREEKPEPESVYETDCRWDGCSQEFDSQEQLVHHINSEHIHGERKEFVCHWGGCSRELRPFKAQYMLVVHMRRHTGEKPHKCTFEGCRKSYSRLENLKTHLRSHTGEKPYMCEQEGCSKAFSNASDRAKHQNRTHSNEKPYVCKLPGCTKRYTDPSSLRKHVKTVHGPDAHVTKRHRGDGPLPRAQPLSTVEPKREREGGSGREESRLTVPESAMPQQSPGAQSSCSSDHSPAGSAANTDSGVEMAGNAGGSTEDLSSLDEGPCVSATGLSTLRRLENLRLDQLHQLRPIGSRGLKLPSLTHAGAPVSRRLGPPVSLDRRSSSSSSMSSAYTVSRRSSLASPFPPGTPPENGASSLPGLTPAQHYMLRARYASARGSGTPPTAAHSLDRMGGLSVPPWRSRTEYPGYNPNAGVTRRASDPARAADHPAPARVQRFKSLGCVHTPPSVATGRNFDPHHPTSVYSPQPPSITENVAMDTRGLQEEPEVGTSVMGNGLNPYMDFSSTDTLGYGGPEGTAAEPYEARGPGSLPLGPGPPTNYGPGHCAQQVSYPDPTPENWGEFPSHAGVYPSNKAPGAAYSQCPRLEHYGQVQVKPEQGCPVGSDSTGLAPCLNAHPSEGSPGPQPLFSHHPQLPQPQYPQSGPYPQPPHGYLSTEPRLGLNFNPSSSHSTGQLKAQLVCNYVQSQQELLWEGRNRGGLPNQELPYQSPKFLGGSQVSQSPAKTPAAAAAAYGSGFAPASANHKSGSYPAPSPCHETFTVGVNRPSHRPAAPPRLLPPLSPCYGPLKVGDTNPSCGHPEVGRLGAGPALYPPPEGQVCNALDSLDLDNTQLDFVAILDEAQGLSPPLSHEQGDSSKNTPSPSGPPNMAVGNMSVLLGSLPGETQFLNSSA

Molecular target: Fem1b (co-IP assay) (UniProt Q9Z2G0)
Assay: co-IP; co-IP assay of Fem1b and Gli1 (Appendix Fig. S6D); cells, bait and antibodies not shown

- binding: binds
Substance: Gli1 (co-IP assay) (from UniProt P47806 1-1111)
